This is one part of the list. Small differences around the control level are noise.
Compound: CN[C@@H]1C[C@H]2O[C@@](C)([C@@H]1OC)n1c3ccccc3c3c4c(c5c6ccccc6n2c5c31)C(=O)NC4 [staurosporine]
Test: log2 fold change of pooled soluble protein (PISA), ligand vs vehicle (log2 ratio); higher = more thermally stabilized
Conditions: ligand concentration: 20 uM; assay format: PISA pool 52.9/55.5/58.6 C

The chains behind the UniProt entries cited, without tags or fusion partners. Where a name states a change or a piece, a line headed by the entry shows the natural chain unless it says otherwise.
UniProt O88983: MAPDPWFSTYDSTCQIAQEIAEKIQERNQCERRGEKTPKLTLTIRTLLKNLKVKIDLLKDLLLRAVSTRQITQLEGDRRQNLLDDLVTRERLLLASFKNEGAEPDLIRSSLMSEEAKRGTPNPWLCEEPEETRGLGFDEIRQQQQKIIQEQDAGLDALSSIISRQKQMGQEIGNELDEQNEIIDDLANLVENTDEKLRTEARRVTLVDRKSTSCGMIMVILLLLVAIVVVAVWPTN
UniProt O08759: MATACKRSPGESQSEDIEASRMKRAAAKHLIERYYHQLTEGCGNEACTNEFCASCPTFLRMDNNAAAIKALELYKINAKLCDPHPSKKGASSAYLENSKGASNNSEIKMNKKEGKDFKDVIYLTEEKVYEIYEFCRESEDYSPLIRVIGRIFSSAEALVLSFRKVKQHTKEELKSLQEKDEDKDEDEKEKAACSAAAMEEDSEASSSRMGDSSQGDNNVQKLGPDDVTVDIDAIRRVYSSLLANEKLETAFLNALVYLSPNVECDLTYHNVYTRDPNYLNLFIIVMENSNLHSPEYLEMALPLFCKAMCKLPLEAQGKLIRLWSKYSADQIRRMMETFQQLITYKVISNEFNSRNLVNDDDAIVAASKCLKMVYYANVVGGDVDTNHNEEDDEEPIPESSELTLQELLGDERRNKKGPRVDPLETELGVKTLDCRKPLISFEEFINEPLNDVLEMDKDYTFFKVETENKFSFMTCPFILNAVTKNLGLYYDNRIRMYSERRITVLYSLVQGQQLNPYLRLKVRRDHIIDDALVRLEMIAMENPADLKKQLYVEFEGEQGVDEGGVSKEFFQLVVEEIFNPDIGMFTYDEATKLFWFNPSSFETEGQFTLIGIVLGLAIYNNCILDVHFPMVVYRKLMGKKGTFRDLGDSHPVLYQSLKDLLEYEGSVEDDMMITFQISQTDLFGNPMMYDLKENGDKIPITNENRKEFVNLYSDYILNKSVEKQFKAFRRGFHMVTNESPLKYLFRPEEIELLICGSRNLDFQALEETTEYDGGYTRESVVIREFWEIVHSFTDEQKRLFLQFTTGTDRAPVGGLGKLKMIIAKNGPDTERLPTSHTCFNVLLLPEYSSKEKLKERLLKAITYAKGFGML
UniProt O54901: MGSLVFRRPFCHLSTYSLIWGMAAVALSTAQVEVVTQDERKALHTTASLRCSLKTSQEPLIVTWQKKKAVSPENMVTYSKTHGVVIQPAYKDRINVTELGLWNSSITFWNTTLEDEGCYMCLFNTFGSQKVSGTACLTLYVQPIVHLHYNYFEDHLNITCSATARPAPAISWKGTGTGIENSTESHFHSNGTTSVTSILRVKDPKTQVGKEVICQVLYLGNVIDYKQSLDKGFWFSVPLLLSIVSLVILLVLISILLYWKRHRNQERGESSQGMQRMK
UniProt O35215: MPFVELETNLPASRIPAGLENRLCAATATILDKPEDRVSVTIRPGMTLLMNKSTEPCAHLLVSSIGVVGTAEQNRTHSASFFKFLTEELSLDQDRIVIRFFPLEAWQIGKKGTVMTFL
UniProt O88851: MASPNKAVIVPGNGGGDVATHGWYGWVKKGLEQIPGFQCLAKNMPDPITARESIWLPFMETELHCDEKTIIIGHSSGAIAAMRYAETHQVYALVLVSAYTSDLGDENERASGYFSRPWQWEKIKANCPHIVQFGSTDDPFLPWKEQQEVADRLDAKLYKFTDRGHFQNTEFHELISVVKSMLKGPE
UniProt O55137: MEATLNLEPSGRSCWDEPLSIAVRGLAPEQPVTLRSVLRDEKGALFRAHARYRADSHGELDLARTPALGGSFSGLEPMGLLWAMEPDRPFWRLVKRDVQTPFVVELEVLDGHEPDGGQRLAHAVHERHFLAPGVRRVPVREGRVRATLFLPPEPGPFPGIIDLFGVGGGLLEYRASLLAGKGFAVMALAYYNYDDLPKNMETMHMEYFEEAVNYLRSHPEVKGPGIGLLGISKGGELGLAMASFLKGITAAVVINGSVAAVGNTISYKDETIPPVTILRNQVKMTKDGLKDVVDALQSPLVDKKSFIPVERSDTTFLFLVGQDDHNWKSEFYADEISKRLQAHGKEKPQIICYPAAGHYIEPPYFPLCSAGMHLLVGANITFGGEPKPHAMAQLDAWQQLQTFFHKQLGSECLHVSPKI
UniProt O55125: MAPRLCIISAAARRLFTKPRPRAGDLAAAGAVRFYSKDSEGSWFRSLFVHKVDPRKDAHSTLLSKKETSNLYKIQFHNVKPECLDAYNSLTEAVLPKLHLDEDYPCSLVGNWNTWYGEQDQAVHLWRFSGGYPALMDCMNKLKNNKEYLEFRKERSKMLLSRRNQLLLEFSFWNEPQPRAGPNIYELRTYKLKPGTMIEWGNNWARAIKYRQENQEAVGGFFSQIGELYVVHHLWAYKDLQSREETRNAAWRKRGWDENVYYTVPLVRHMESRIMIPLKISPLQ
UniProt O70400: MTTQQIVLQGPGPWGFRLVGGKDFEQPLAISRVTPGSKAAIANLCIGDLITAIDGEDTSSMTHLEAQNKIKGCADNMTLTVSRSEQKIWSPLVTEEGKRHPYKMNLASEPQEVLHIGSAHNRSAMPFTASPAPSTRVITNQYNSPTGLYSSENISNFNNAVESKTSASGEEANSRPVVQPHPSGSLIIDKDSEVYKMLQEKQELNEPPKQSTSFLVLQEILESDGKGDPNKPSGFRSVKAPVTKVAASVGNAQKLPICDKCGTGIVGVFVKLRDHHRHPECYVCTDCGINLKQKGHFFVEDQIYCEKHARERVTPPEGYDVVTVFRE
UniProt O55143: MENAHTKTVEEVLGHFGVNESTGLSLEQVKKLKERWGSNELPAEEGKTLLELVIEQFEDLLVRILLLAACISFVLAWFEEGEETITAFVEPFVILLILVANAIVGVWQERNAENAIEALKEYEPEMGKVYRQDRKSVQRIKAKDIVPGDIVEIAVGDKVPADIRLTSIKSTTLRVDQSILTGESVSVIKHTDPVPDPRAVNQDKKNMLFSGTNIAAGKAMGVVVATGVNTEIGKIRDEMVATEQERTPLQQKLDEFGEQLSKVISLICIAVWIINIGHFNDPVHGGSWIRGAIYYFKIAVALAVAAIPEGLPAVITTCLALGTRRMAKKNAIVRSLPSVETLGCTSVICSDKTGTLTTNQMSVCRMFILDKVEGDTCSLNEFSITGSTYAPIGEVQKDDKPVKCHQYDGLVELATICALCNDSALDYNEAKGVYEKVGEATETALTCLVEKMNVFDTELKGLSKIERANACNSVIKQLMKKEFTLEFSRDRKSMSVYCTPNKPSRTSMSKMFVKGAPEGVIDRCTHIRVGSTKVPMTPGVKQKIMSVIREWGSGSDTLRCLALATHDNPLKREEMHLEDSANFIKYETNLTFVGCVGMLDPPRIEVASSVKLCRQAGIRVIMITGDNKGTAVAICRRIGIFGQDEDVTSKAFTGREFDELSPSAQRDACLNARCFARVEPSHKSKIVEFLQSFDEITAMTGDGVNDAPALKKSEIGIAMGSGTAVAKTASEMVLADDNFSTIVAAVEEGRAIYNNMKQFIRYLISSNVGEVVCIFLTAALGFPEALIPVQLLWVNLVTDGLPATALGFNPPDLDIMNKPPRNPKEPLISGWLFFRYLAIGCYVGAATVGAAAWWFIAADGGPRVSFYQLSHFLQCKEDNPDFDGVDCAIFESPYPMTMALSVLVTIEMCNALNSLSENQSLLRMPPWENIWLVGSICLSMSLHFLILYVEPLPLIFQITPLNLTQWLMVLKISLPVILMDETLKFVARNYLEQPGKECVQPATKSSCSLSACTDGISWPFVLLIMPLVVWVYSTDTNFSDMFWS
UniProt O35664: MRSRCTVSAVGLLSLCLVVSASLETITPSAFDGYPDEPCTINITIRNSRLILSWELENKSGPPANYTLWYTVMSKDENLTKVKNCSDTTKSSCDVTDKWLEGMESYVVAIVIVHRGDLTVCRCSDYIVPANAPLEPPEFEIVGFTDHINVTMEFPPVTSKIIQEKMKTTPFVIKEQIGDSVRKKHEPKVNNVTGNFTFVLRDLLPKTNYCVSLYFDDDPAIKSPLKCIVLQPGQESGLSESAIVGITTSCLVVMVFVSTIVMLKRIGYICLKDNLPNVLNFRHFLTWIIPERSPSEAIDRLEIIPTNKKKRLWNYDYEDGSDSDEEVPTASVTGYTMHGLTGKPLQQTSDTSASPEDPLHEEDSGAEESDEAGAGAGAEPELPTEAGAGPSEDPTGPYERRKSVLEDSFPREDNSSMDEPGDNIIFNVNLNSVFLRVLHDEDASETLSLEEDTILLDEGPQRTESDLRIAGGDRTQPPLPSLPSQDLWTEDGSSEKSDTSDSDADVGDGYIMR
UniProt O35143: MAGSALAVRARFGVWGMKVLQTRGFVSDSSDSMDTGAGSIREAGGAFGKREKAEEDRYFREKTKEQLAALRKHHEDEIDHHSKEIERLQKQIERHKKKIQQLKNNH
UniProt P01680, whole entry: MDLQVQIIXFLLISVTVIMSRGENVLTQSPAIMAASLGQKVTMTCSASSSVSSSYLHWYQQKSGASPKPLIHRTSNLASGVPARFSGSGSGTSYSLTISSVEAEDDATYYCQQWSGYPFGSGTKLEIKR
UniProt O70472: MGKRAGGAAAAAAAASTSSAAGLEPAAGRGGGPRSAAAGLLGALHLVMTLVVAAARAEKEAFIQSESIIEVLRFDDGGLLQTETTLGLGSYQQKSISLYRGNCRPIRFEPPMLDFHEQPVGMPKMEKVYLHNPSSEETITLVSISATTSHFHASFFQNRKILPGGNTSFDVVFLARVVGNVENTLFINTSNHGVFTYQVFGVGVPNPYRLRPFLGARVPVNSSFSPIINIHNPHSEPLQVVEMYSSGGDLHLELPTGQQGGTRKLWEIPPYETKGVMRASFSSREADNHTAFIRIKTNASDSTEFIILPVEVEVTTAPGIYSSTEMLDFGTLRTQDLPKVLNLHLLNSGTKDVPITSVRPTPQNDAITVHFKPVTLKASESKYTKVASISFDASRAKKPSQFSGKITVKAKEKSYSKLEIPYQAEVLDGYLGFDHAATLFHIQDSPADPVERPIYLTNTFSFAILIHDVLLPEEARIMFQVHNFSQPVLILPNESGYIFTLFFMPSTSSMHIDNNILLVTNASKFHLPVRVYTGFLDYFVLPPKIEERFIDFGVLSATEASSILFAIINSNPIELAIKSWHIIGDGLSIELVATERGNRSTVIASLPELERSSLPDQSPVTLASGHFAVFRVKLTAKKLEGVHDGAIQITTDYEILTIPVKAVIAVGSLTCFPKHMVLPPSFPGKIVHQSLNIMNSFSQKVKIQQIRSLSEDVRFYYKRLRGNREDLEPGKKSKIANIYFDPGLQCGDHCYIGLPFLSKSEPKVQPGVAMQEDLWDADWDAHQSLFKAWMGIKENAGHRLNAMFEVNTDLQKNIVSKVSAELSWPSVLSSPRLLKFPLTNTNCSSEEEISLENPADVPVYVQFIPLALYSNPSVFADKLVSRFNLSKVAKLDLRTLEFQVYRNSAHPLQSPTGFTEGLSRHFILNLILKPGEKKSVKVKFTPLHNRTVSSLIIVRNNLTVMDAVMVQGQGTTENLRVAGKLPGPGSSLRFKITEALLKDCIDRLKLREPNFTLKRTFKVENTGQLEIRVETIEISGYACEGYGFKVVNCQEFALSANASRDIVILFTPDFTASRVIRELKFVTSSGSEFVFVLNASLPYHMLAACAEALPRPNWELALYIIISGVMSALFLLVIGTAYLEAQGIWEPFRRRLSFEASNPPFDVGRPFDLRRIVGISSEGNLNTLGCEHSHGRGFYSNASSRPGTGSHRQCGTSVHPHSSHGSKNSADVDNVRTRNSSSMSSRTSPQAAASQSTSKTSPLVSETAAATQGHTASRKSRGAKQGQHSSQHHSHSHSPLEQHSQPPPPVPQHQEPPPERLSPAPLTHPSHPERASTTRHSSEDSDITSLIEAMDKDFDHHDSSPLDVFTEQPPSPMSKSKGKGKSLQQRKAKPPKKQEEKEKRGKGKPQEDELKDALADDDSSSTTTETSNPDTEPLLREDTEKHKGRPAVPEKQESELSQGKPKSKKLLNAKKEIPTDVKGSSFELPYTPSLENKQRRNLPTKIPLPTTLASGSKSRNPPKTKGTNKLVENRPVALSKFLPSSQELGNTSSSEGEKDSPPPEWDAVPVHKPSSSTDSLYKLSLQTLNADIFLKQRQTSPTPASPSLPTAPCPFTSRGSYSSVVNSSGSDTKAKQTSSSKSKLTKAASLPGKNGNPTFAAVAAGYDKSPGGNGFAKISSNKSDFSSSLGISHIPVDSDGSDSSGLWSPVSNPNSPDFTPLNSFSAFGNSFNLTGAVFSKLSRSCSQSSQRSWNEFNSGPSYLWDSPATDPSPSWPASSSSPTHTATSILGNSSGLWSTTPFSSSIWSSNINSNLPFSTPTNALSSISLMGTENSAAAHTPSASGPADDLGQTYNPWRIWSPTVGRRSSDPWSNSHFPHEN
UniProt O70492, whole entry: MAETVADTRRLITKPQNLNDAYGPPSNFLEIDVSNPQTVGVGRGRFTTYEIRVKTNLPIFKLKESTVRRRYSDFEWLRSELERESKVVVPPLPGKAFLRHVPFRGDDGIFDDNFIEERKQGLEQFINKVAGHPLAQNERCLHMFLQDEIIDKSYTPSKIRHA

| Target | log2 fold change of pooled soluble protein |
| --- | --- |
| UniProt O88643 | -0.283 |
| UniProt O88908 | -0.0215 |
| UniProt O88983 | -0.0463 |
| UniProt O08759 | 0.0306 |
| UniProt O54901 | 0.3 |
| UniProt O35215 | -0.671 |
| UniProt O35344 | -0.33 |
| UniProt O88736 | 0.141 |
| UniProt O35744 | 0.0166 |
| UniProt O55106 | -0.212 |
| UniProt O88851 | 0.0115 |
| UniProt O35326 | -0.00668 |
| UniProt O55137 | 0.338 |
| UniProt O88947 | 0.154 |
| P01863;P01865 | 0.0629 |
| UniProt O70309 | 0.11 |
| UniProt O08663 | -0.00725 |
| UniProt O55125 | 0.633 |
| UniProt O88544 | 0.0529 |

| Target | log2 fold change of pooled soluble protein |
| --- | --- |
| UniProt O70400 | -0.0266 |
| UniProt O70251 | -0.0859 |
| UniProt O54916 | 0.0255 |
| UniProt O55143 | 0.116 |
| UniProt O35664 | 0.231 |
| UniProt O35143 | -0.148 |
| UniProt O09159 | -0.112 |
| UniProt O70378 | -0.0736 |
| UniProt O88735 | -0.136 |
| UniProt P01680 | 0.16 |
| O35207;Q9CPY4 | 0.0568 |
| UniProt O70472 | 0.112 |
| UniProt P01867 | -0.0224 |
| UniProt O70492 | -0.071 |
| UniProt O88935 | -0.0267 |
| UniProt O35711 | 0.0648 |
| UniProt O08914 | -0.0516 |
| UniProt O88685 | -0.0665 |

As entered above:
log2 fold change of pooled soluble protein, UniProt O35143 reads -0.148
log2 fold change of pooled soluble protein, UniProt O35215 reads -0.671
